Data from US20100158973A1 (HADASIT MEDICAL RESEARCH SERVICES & DEVELOPMENT LlIMITED, priority 2006, published 2010).

Test: Body weight before and 7 days after LAD ligation
Type: in vivo, rats
Settings: CBD group, Day 7 after LAD ligation, 5 mg/kg IP daily

Substance Cannabidiol [CBD] has a Weight of 314.57±8.67 gr.
